Experimental data taken from the supplement of paper PMC10382679.
Single values of this set are uncertain.

B1: Rpb7; numbered along this chain (parent)
chain: MFFIKDLSLNITLHPSFFGPRMKQYLKTKLLEEVEGSCTGKFGYILCVLDYDNIDIQRGRILPTDGSAEFNVKYRAVVFKPFKGEVVDGTVVSCSQHGFEVQVGPMKVFVTKHLMPQDLTFNAGSNPPSYQSSEDVITIKSRIRVKIEGCISQVSSIHAIGSIKEDYLGAI

Assays:
[1] = variants of: B1; assay: log2 fold change of mutant abundance, UV-irradiated vs unirradiated; higher = more UV resistant (enriched after UV); settings: with Saccharomyces cerevisiae rad7Δ rad26Δ; UV dose (J/m2): 10; genetic background: rad7Δ rad26Δ rpb7Δ + plasmid RPB7 library; outgrowth: 10 cell divisions
[2] = variants of: B1; assay: NOISeq theta enrichment statistic, UV-irradiated vs unirradiated (dimensionless); higher = more UV resistant (enriched after UV); settings: with Saccharomyces cerevisiae rad7Δ rad26Δ; UV dose (J/m2): 10; genetic background: rad7Δ rad26Δ rpb7Δ + plasmid RPB7 library; outgrowth: 10 cell divisions

Row | Variant | log2 fold change of mutant abundance [1] | NOISeq theta enrichment statistic [2]
1 | MFFIKDLSLNITLHPSFFGPRMKQYLKTKLLEEVEGSCTGKFGYILCVLDYDNIDIQRGRILPTDGSAEFNVKYRAVVFKPFKGEVVDGTVVSCSQHGFEVQVGPMKVFVTKHLMPQDLTFNAGSNPPSYQSSEDVITIKSKIRVKIEGCISQVSSIHAIGSIKEDYLGAI [R142K] | 0.0298 | 0.0639
2 | MFFIKDLSLNITLHPSFFGPRMKQYLKTKLLEEVEGSCTGKFGYILCVLDYDNIDIQRGRILPTDGSAEFNVKYRAVVFKPFKGEVVDGTVVSCSQHGFEVQVGPMKVFVTKHLMPQDLTFNAGSNPPSYQSSEDVITIKSEIRVKIEGCISQVSSIHAIGSIKEDYLGAI [R142E] | -0.728 | -0.411
3 | MFFIKDLSLNITLHPSFFGPRMKQYLKTKLLEEVEGSCTGKFGYILCVLDYDNIDIQRGRILPTDGSAEFNVKYRAVVFKPFKGEVVDGTVVSCSQHGFEVQVGPMKVFVTKHLMPQDLTFNAGSNPPSYQSSEDVITIKSCIRVKIEGCISQVSSIHAIGSIKEDYLGAI [R142C] | 0.524 | 0.235
4 | MFFIKDLSLNITLHPSFFGPRMKQYLKTKLLEEVEGSCTGKFGYILCVLDYDNIDIQRGRILPTDGSAEFNVKYRAVVFKPFKGEVVDGTVVSCSQHGFEVQVGPMKVFVTKHLMPQDLTFNAGSNPPSYQSSEDVITIKSSIRVKIEGCISQVSSIHAIGSIKEDYLGAI [R142S] | -0.193 | -0.55
5 | MFFIKDLSLNITLHPSFFGPRMKQYLKTKLLEEVEGSCTGKFGYILCVLDYDNIDIQRGRILPTDGSAEFNVKYRAVVFKPFKGEVVDGTVVSCSQHGFEVQVGPMKVFVTKHLMPQDLTFNAGSNPPSYQSSEDVITIKSNIRVKIEGCISQVSSIHAIGSIKEDYLGAI [R142N] | 0.304 | 0.16
6 | MFFIKDLSLNITLHPSFFGPRMKQYLKTKLLEEVEGSCTGKFGYILCVLDYDNIDIQRGRILPTDGSAEFNVKYRAVVFKPFKGEVVDGTVVSCSQHGFEVQVGPMKVFVTKHLMPQDLTFNAGSNPPSYQSSEDVITIKSIIRVKIEGCISQVSSIHAIGSIKEDYLGAI [R142I] | -0.00961 | -0.0192
7 | MFFIKDLSLNITLHPSFFGPRMKQYLKTKLLEEVEGSCTGKFGYILCVLDYDNIDIQRGRILPTDGSAEFNVKYRAVVFKPFKGEVVDGTVVSCSQHGFEVQVGPMKVFVTKHLMPQDLTFNAGSNPPSYQSSEDVITIKSTIRVKIEGCISQVSSIHAIGSIKEDYLGAI [R142T] | -0.369 | -0.387
8 | MFFIKDLSLNITLHPSFFGPRMKQYLKTKLLEEVEGSCTGKFGYILCVLDYDNIDIQRGRILPTDGSAEFNVKYRAVVFKPFKGEVVDGTVVSCSQHGFEVQVGPMKVFVTKHLMPQDLTFNAGSNPPSYQSSEDVITIKSMIRVKIEGCISQVSSIHAIGSIKEDYLGAI [R142M] | -0.624 | -0.426
9 | MFFIKDLSLNITLHPSFFGPRMKQYLKTKLLEEVEGSCTGKFGYILCVLDYDNIDIQRGRILPTDGSAEFNVKYRAVVFKPFKGEVVDGTVVSCSQHGFEVQVGPMKVFVTKHLMPQDLTFNAGSNPPSYQSSEDVITIKSWIRVKIEGCISQVSSIHAIGSIKEDYLGAI [R142W] | -0.253 | -0.193
10 | MFFIKDLSLNITLHPSFFGPRMKQYLKTKLLEEVEGSCTGKFGYILCVLDYDNIDIQRGRILPTDGSAEFNVKYRAVVFKPFKGEVVDGTVVSCSQHGFEVQVGPMKVFVTKHLMPQDLTFNAGSNPPSYQSSEDVITIKSGIRVKIEGCISQVSSIHAIGSIKEDYLGAI [R142G] | -0.0471 | -0.102
11 | MFFIKDLSLNITLHPSFFGPRMKQYLKTKLLEEVEGSCTGKFGYILCVLDYDNIDIQRGRILPTDGSAEFNVKYRAVVFKPFKGEVVDGTVVSCSQHGFEVQVGPMKVFVTKHLMPQDLTFNAGSNPPSYQSSEDVITIKKRIRVKIEGCISQVSSIHAIGSIKEDYLGAI [S141K] | 0.00635 | 0.00545
12 | MFFIKDLSLNITLHPSFFGPRMKQYLKTKLLEEVEGSCTGKFGYILCVLDYDNIDIQRGRILPTDGSAEFNVKYRAVVFKPFKGEVVDGTVVSCSQHGFEVQVGPMKVFVTKHLMPQDLTFNAGSNPPSYQSSEDVITIKNRIRVKIEGCISQVSSIHAIGSIKEDYLGAI [S141N] | 0.0119 | 0.0274
13 | MFFIKDLSLNITLHPSFFGPRMKQYLKTKLLEEVEGSCTGKFGYILCVLDYDNIDIQRGRILPTDGSAEFNVKYRAVVFKPFKGEVVDGTVVSCSQHGFEVQVGPMKVFVTKHLMPQDLTFNAGSNPPSYQSSEDVITIKRRIRVKIEGCISQVSSIHAIGSIKEDYLGAI [S141R] | -0.0826 | -0.25
14 | MFFIKDLSLNITLHPSFFGPRMKQYLKTKLLEEVEGSCTGKFGYILCVLDYDNIDIQRGRILPTDGSAEFNVKYRAVVFKPFKGEVVDGTVVSCSQHGFEVQVGPMKVFVTKHLMPQDLTFNAGSNPPSYQSSEDVITIKVRIRVKIEGCISQVSSIHAIGSIKEDYLGAI [S141V] | -0.793 | -0.416
15 | MFFIKDLSLNITLHPSFFGPRMKQYLKTKLLEEVEGSCTGKFGYILCVLDYDNIDIQRGRILPTDGSAEFNVKYRAVVFKPFKGEVVDGTVVSCSQHGFEVQVGPMKVFVTKHLMPQDLTFNAGSNPPSYQSSEDVITIKTRIRVKIEGCISQVSSIHAIGSIKEDYLGAI [S141T] | 0.067 | 0.104
16 | MFFIKDLSLNITLHPSFFGPRMKQYLKTKLLEEVEGSCTGKFGYILCVLDYDNIDIQRGRILPTDGSAEFNVKYRAVVFKPFKGEVVDGTVVSCSQHGFEVQVGPMKVFVTKHLMPQDLTFNAGSNPPSYQSSEDVITIKSRHRVKIEGCISQVSSIHAIGSIKEDYLGAI [I143H] | 0.342 | 0.253
17 | MFFIKDLSLNITLHPSFFGPRMKQYLKTKLLEEVEGSCTGKFGYILCVLDYDNIDIQRGRILPTDGSAEFNVKYRAVVFKPFKGEVVDGTVVSCSQHGFEVQVGPMKVFVTKHLMPQDLTFNAGSNPPSYQSSEDVITIKSRFRVKIEGCISQVSSIHAIGSIKEDYLGAI [I143F] | -0.396 | -0.498

Records 1–2 from above:
Row | Variant | log2 fold change of mutant abundance [1] | NOISeq theta enrichment statistic [2]
1 | MFFIKDLSLNITLHPSFFGPRMKQYLKTKLLEEVEGSCTGKFGYILCVLDYDNIDIQRGRILPTDGSAEFNVKYRAVVFKPFKGEVVDGTVVSCSQHGFEVQVGPMKVFVTKHLMPQDLTFNAGSNPPSYQSSEDVITIKSKIRVKIEGCISQVSSIHAIGSIKEDYLGAI [R142K] | 0.0298 | 0.0639
2 | MFFIKDLSLNITLHPSFFGPRMKQYLKTKLLEEVEGSCTGKFGYILCVLDYDNIDIQRGRILPTDGSAEFNVKYRAVVFKPFKGEVVDGTVVSCSQHGFEVQVGPMKVFVTKHLMPQDLTFNAGSNPPSYQSSEDVITIKSEIRVKIEGCISQVSSIHAIGSIKEDYLGAI [R142E] | -0.728 | -0.411
